Data as given in PubChem BioAssay AID493246 (Drosophila RNAi Screening Center, 2011).

- Aim: 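Identify essential fly genes by loss of cell viability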 (primary screen)
- Cells: Drosophila Kc and S2R+ cells
- Reagent: long dsRNA against Drosophila genes
- Read-out: 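Cell number per well after knock-down, printed as raw plate values; calls were based on per-plate z-scores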
- Scale: Kc cell number and S2R+ cell number: higher = more cells remaining
- Rule for the call: 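Active when the per-plate z-score of cell number is 3 or more in the direction of fewer cells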
The screen tested about 21,000 reagents; below is an unselected part of those with a known target gene and a result. In the full data, 429 (2%) are marked active. 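Values are raw and not normalised between plates; calls rest on per-plate z-scores that were not deposited.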 Not stated in the record: the amount of reagent, the time to read-out.

Gene	DRSC id	Kc cell number, rep 1	Kc cell number, rep 2	S2R+ cell number, rep 1	S2R+ cell number, rep 2	call
Galt (Galactose-1-phosphate uridylyltransferase)	DRSC03161	1.27e6	1.27e6	6.05e5	7.25e5	inactive
CG14007	DRSC02339	1.51e6	1.19e6	1.12e6	1.23e6	inactive
Pgi (Phosphoglucose isomerase)	DRSC07507	1.31e6	1.35e6	1.14e6	1.25e6	inactive
CG3894	DRSC01762	5.20e5		8.41e5		inactive
CG3894	DRSC04012	1.43e6	1.49e6	9.88e5	1.09e6	inactive
CG3894	DRSC04429	1.70e6	1.68e6	1.35e6	1.30e6	inactive
Max	DRSC11218	1.50e6	1.51e6	1.36e6	1.46e6	inactive
toe (twin of eyg)	DRSC09174	1.56e6	1.64e6	1.21e6	1.37e6	inactive
toe (twin of eyg)	DRSC09783	1.81e6	1.74e6	1.22e6	1.27e6	inactive
CG14628	DRSC18626	1.57e6	1.56e6	1.05e6	1.24e6	inactive
CG13044	DRSC09925	1.58e6	1.58e6	1.19e6	1.34e6	inactive
CG18304	DRSC02664	1.58e6	1.58e6	1.23e6	1.36e6	inactive
Kap-alpha1 (karyopherin alpha1)	DRSC11356	1.33e6	1.33e6	1.29e6	1.35e6	inactive
disp (dispatched)	DRSC12376	1.52e6	1.64e6	1.26e6	1.35e6	inactive
Mat1 (Menage a trois 1)	DRSC07465	1.84e6	1.71e6	1.39e6	1.49e6	inactive
CG13634	DRSC14635	1.50e6	1.48e6	9.46e5	1.10e6	inactive
Jheh1 (Juvenile hormone epoxide hydrolase 1)	DRSC06529	1.30e6	1.39e6	1.10e6	1.12e6	inactive
Mhc (Myosin heavy chain)	DRSC03367	1.59e6	1.68e6	1.12e6	1.21e6	inactive
Ir67a (Ionotropic receptor 67a)	DRSC09897	1.45e6	1.45e6	1.39e6	1.52e6	inactive
pic (piccolo)	DRSC16639	1.61e6	1.73e6	1.06e6	1.18e6	inactive
CG8726	DRSC07250	1.39e6	1.46e6	1.05e6	1.13e6	inactive
Fgop2 (Fibroblast growth factor receptor 1 oncogene partner 2)	DRSC02016	1.17e6	1.23e6	5.54e5	6.95e5	inactive
Pax (Paxillin)	DRSC01703	1.47e6	1.53e6	9.67e5	1.12e6	inactive
Pax (Paxillin)	DRSC02651	1.58e6	1.75e6	1.52e6	1.41e6	inactive
Pax (Paxillin)	DRSC02652	1.59e6	1.67e6	1.27e6	3.65e5	inactive
